Some of the results follow.
Compound: Cc1cc(ccc1-c1ccccc1)C(=O)N1CCCN(CC1)C(=O)CCl [compound 10]
Experiment: probe-labelled cysteine peptide fold change vs DMSO (competition) (log2 fold change); higher = less target engagement (more negative = stronger competition)
Conditions: THP-1, incubation time: 4 h
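Also: competitive profiling in live THP-1 cells: cysteine peptides tagged with an iodoacetamide desthiobiotin (IA-DTB) probe, intensity after compound treatment relative to DMSO-treated cells.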

By UniProt entry, the sequences of proteins in these tests, tags left out. Where a name states a change or a piece, a line headed by the entry shows the natural chain unless it says otherwise.
UniProt P16930: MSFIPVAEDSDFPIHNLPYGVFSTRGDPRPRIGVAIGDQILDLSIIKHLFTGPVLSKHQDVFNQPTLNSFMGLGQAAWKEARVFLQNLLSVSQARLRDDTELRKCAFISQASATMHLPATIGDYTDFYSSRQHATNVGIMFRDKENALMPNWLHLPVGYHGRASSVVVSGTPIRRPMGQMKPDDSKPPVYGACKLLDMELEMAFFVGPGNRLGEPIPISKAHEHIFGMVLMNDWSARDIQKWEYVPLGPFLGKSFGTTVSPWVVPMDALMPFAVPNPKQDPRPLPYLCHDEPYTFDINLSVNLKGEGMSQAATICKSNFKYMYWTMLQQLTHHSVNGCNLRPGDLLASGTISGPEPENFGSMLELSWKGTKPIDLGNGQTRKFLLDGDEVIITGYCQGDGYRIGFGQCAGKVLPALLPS
UniProt Q01469, whole entry, looked up: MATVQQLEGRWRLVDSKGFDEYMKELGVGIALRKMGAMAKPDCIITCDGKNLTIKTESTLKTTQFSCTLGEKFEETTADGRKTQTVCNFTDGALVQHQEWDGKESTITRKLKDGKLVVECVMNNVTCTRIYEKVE
UniProt Q9Y282: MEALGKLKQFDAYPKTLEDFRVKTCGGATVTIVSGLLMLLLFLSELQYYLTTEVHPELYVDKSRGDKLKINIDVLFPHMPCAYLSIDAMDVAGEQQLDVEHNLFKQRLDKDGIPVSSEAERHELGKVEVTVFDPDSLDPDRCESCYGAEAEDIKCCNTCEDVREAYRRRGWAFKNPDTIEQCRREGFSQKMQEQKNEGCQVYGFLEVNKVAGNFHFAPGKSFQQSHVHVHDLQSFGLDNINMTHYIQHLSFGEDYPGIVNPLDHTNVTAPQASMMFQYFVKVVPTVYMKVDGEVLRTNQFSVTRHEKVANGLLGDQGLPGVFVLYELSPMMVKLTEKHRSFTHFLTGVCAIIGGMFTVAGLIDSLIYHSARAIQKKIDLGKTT
UniProt Q96DZ1: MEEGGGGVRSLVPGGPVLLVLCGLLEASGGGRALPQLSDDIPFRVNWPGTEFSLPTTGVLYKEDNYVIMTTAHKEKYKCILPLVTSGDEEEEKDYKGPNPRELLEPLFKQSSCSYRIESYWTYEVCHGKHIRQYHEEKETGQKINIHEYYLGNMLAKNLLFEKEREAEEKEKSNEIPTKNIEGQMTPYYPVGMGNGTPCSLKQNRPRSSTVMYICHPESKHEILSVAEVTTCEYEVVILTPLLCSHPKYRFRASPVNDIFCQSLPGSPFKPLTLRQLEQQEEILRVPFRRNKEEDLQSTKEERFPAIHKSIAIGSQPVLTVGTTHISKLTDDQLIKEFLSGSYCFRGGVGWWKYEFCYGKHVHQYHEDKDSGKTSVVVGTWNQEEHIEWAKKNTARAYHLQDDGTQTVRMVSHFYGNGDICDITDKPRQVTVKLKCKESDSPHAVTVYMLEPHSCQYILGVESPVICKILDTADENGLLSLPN
UniProt O60645: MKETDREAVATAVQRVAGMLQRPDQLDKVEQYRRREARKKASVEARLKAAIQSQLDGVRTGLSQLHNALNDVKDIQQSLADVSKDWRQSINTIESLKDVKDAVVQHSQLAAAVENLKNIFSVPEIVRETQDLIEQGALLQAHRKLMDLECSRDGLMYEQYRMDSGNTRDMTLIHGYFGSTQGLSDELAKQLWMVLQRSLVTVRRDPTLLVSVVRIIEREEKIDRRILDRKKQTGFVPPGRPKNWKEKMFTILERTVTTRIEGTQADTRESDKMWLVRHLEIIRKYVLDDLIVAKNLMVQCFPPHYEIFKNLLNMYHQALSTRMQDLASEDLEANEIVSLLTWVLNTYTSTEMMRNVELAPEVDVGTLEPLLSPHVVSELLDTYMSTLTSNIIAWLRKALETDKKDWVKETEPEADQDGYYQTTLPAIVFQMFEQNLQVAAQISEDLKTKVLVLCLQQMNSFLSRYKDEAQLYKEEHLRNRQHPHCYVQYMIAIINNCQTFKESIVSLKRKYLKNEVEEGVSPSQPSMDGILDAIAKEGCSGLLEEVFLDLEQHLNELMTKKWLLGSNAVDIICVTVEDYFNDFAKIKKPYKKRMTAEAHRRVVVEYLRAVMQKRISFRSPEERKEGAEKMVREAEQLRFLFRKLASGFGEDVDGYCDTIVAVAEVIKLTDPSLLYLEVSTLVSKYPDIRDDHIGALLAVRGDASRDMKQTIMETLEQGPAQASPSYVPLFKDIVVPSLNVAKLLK
UniProt Q96EK7: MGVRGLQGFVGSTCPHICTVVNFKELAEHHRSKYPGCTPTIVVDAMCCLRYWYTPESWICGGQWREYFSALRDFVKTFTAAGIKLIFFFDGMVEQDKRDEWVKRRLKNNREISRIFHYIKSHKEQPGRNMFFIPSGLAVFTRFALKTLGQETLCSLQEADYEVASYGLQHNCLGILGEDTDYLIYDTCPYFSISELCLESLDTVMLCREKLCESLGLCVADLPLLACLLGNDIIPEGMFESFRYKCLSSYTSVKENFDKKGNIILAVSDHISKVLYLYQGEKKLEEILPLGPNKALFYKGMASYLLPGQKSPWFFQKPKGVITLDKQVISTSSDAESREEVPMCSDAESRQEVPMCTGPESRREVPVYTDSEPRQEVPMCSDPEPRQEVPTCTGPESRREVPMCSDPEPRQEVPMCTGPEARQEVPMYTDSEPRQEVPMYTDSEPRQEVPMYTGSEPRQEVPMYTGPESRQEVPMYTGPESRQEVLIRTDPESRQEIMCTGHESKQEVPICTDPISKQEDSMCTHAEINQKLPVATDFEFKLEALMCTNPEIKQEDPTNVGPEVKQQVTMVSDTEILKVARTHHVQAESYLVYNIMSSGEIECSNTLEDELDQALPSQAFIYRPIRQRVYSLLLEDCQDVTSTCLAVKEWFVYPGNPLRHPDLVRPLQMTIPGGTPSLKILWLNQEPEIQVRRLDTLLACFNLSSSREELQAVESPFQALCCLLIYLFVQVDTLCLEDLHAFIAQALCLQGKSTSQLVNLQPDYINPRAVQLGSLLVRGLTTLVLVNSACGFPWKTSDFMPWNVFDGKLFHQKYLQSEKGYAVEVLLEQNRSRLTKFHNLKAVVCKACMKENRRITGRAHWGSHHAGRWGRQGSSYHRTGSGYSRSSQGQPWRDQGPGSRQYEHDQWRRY
UniProt Q15024, whole entry, looked up: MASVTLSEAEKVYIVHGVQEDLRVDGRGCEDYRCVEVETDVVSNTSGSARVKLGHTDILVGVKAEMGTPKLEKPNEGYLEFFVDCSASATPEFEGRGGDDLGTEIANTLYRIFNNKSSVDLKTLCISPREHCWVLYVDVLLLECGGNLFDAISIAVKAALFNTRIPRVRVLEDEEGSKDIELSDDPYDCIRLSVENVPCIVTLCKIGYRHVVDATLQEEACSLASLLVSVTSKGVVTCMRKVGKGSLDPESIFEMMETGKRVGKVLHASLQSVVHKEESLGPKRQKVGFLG
UniProt Q86YB8: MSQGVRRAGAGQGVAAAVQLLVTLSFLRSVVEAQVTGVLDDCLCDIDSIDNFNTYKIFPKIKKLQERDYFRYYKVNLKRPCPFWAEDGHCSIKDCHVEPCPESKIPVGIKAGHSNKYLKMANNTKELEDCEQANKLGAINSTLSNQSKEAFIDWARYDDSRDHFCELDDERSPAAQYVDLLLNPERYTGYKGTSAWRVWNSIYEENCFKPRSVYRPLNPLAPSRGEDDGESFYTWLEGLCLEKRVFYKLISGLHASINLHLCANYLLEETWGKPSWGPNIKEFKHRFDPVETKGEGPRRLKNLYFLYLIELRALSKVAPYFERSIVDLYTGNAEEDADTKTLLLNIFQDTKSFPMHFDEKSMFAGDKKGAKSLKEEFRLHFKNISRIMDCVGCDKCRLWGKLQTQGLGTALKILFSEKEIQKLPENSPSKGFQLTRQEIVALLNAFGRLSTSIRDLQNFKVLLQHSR
UniProt O43414: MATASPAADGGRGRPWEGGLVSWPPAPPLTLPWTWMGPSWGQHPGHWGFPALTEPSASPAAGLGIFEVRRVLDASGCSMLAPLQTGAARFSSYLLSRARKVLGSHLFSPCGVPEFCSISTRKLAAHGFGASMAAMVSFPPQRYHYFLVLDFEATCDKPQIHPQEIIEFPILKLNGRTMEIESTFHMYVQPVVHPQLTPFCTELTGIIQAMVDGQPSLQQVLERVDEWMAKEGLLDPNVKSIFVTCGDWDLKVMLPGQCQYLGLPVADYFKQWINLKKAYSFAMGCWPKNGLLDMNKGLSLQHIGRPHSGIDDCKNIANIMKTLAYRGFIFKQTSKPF
UniProt Q9BZQ8: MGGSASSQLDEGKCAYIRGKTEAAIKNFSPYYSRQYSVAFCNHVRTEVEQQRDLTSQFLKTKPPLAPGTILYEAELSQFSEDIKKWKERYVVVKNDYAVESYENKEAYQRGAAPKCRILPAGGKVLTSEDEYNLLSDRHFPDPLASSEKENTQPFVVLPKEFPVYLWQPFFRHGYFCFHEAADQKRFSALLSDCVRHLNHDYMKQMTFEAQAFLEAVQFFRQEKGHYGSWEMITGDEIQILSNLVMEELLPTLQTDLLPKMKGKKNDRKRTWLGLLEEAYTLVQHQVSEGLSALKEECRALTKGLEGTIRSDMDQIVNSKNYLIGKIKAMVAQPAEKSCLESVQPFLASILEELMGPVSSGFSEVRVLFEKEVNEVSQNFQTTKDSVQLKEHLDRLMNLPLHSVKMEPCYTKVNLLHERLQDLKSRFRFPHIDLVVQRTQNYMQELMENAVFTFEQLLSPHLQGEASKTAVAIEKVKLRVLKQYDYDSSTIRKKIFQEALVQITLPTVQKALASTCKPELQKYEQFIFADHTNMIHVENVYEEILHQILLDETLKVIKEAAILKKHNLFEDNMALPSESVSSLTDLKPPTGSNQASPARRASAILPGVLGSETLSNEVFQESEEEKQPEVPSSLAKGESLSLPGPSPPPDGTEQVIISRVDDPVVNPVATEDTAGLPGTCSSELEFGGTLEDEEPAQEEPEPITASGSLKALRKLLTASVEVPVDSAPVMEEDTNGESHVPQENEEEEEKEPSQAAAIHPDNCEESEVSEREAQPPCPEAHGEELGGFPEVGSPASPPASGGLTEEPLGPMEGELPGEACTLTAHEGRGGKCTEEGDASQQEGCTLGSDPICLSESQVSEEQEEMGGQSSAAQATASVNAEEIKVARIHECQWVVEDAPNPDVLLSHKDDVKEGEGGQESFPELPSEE
UniProt P10768: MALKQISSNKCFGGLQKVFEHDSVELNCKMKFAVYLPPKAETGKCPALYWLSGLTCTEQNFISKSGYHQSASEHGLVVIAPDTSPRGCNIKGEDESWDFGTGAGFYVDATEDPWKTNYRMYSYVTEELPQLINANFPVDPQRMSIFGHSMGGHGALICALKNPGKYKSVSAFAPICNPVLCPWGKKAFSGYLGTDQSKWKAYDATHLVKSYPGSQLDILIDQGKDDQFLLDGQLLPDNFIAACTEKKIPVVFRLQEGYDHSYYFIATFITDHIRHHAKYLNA
UniProt P28715: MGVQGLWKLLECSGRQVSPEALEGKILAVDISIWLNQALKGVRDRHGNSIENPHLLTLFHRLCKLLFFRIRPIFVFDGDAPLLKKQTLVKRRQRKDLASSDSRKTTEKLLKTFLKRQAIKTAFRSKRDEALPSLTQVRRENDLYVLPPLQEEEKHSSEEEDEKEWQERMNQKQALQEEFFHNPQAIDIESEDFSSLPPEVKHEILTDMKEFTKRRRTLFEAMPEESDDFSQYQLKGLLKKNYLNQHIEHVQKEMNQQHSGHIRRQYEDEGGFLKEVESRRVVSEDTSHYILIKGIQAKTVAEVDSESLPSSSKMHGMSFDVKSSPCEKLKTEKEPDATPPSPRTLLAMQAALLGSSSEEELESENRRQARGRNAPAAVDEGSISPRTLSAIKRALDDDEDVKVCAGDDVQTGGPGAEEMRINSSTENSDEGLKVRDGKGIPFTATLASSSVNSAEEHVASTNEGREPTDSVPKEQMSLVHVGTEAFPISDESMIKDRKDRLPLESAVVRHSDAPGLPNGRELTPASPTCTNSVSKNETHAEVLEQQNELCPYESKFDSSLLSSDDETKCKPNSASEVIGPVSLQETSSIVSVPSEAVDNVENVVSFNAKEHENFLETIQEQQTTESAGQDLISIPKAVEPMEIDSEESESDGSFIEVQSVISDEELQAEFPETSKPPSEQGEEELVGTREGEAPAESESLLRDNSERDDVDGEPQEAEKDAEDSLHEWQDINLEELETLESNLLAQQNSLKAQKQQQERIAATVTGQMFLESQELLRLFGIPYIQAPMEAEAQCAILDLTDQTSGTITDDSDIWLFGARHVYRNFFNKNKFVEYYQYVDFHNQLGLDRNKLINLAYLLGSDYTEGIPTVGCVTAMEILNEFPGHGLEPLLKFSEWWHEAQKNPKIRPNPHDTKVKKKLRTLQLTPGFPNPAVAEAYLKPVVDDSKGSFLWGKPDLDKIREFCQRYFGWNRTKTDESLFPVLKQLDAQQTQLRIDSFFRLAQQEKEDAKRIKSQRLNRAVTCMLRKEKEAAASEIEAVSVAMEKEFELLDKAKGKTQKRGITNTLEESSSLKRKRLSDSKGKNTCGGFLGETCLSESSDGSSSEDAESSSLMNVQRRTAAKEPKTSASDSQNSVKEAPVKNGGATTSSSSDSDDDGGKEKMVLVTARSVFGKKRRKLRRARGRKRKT

Target | probe-labelled cysteine peptide fold change (10 µM) | probe-labelled cysteine peptide fold change (50 µM)
EXTL3_O43909_400_LDQVLVEFTCK (UniProt O43909) | -0.327 | 0.705
F2_P00734_594_WYQMGIVSWGEGCDR (UniProt P00734) | -0.204 | -0.471
FAH_P16930_396_KFLLDGDEVIITGYCQGDGYR (UniProt P16930) | 0.0254 | -0.303
FABP5_Q01469_120+127_LVVECVMNNVTCTR (UniProt Q01469) | -0.0383 | -0.868
ERGIC3_Q9Y282_155_CCNTCEDVR (UniProt Q9Y282) | 0.0999 | 0.0761
EZH2_Q15910_294_YDCFLHPFHATPNTYKR (UniProt Q15910) | 0.175 | 0.209
ERLEC1_Q96DZ1_421_MVSHFYGNGDICDITDKPR (UniProt Q96DZ1) | -0.0283 | 0.0403
ESCO2_Q56NI9_392_SCGMIYTASNPEDEMQHVQHHHR (UniProt Q56NI9) | 0.666 | 0.392
EXOC3_O60645_161_LMDLECSR (UniProt O60645) | -0.281 | -0.764
EXOC1_Q9NV70_27_LLSIVNVCK (UniProt Q9NV70) | 0.00997 | -0.000865
FAM120B_Q96EK7_404_EVPMCSDPEPR (UniProt Q96EK7) | -0.371 | -0.274
EXOSC7_Q15024_199_LSVENVPCIVTLCK (UniProt Q15024) | 0.143 | 0.128
ERO1B_Q86YB8_130_ELEDCEQANK (UniProt Q86YB8) | -0.316 | -0.0572
FAH_P16930_193_PMGQMKPDDSKPPVYGACK (UniProt P16930) | 0.114 | -0.233
ERI3_O43414_313_GLSLQHIGRPHSGIDDCK (UniProt O43414) | 0.0184 | 0.0877
ERP44_Q9BS26_189_VANILHDDCAFLSAFGDVSK (UniProt Q9BS26) | -0.195 | 0.515
FAM129A_Q9BZQ8_891_IHECQWVVEDAPNPDVLLSHKDDVK (UniProt Q9BZQ8) | -0.299 | -0.688
EZR_P15311_284_ILQLCMGNHELYMR (UniProt P15311) | 0.0146 | 0.00653
ESD_P10768_158_MSIFGHSMGGHGALICALK (UniProt P10768) | 0.0855 | -0.322
FAF1_Q9UNN5_428_FLTMCNR (UniProt Q9UNN5) | 0.108 | 0.153
ERCC5_P28715_550_NETHAEVLEQQNELCPYESK (UniProt P28715) | -0.452 | -0.364

Reformatted: entries from further up.
Target	probe-labelled cysteine peptide fold change (10 µM)	probe-labelled cysteine peptide fold change (50 µM)
F2_P00734_594_WYQMGIVSWGEGCDR (UniProt P00734)	-0.204	-0.471
FABP5_Q01469_120+127_LVVECVMNNVTCTR (UniProt Q01469)	-0.0383	-0.868
EXOC3_O60645_161_LMDLECSR (UniProt O60645)	-0.281	-0.764
EXOSC7_Q15024_199_LSVENVPCIVTLCK (UniProt Q15024)	0.143	0.128
FAH_P16930_193_PMGQMKPDDSKPPVYGACK (UniProt P16930)	0.114	-0.233

From the supplement of paper PMC12067093, “Discovery and optimisation of a covalent ligand for TRIM25 and its application to targeted protein ubiquitination” (Chemical Science, 2025)
